Measurements published in paper PMC4702128.
No constants are given. Whether binding was seen depends on the method and setting. Binding seen in cells or lysates may run through a third protein. Here binding means that the protein was enriched with, or labelled near, the bait; the list need not be complete. Sequences can lack the tags named with a protein.

Molecular target: T1, FLAG-tagged NuSAP (nucleolar and spindle-associated protein) (human (cDNA library from HEK 293T cells)) (UniProt Q9BXS6)
T1 sequence: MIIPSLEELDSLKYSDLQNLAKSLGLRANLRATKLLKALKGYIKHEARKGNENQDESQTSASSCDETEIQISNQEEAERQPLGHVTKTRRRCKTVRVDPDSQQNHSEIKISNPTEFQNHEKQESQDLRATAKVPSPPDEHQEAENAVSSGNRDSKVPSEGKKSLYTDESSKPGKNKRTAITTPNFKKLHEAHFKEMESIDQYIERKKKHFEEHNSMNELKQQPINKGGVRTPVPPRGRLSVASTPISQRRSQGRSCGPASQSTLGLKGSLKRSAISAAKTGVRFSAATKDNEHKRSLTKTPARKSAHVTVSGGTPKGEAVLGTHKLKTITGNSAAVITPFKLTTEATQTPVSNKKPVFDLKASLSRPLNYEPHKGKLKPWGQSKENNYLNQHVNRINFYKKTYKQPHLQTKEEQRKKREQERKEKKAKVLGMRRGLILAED
Assay: affinity purification with mass spectrometry; anti-FLAG-M2 agarose beads with FLAG-NuSAP- or FLAG vector-expressing HEK 293T lysates, 3 h, 4 °C; bands of a Coomassie-stained gel identified by mass spectrometry and confirmed by western blotting

B1: Mitotic centromere-associated kinesin (MCAK), endogenous in HEK 293T (protein, UniProt Q99661 1-725)
chain: MAMDSSLQARLFPGLAIKIQRSNGLIHSANVRTVNLEKSCVSVEWAEGGATKGKEIDFDDVAAINPELLQLLPLHPKDNLPLQENVTIQKQKRRSVNSKIPAPKESLRSRSTRMSTVSELRITAQENDMEVELPAAANSRKQFSVPPAPTRPSCPAVAEIPLRMVSEEMEEQVHSIRGSSSANPVNSVRRKSCLVKEVEKMKNKREEKKAQNSEMRMKRAQEYDSSFPNWEFARMIKEFRATLECHPLTMTDPIEEHRICVCVRKRPLNKQELAKKEIDVISIPSKCLLLVHEPKLKVDLTKYLENQAFCFDFAFDETASNEVVYRFTARPLVQTIFEGGKATCFAYGQTGSGKTHTMGGDLSGKAQNASKGIYAMASRDVFLLKNQPCYRKLGLEVYVTFFEIYNGKLFDLLNKKAKLRVLEDGKQQVQVVGLQEHLVNSADDVIKMIDMGSACRTSGQTFANSNSSRSHACFQIILRAKGRMHGKFSLVDLAGNERGADTSSADRQTRMEGAEINKSLLALKECIRALGQNKAHTPFRESKLTQVLRDSFIGENSRTCMIATISPGISSCEYTLNTLRYADRVKELSPHSGPSGEQLIQMETEEMEACSNGALIPGNLSKEEEELSSQMSSFNEAMTQIRELEEKAMEELKEIIQQGPDWLELSEMTEQPDYDLETFVNKAESALAQQAKHFSALRDVIKALRLAMQLEEQASRQISSKKRPQ
  binding: binds
